Measurements from patent publication US9309286B2, “Compositions and methods for augmenting permeability barriers” (TUFTS MEDICAL CENTER, priority 2011, dated 2016).
Not every detail of the peptide structures is certain; ends, links or a residue may be inferred. Peptide text beside a SMILES is read from it.

The chains behind the UniProt entries cited, without tags or fusion partners.
UniProt P49138, whole entry: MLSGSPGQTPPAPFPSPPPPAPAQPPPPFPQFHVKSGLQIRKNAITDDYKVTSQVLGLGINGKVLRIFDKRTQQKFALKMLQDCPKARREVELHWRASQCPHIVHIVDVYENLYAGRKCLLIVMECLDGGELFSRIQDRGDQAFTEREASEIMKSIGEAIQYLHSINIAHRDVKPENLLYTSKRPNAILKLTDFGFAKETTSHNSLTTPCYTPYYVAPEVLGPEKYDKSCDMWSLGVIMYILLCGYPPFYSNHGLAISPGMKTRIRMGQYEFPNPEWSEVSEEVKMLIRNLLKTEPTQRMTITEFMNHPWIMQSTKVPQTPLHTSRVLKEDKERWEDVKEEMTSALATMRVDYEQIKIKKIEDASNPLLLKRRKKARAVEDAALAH

Biological target: T1, MK2 (Mus musculus, UniProt P49138)
T1 construct: endogenous in cells; host or cells: MEF (mouse embryonic fibroblasts)
Test: Phosphorylated HSP27 immunoblot (reflects activity of MK2) in MEF
Assay type: cell-based

C[C@H](NC(=O)[C@H](C)NC(=O)[C@@H]1CCCN1C(=O)[C@H](C)NC(=O)CNC(=O)[C@H](CCCNC(=N)N)NC(=O)[C@H](CCCNC(=N)N)NC(=O)[C@@H](NC(=O)CNC(=O)[C@@H]1CCCN1C(=O)[C@@H](NC(=O)[C@H](CCCNC(=N)N)NC(=O)[C@H](CCCNC(=N)N)NC(=O)[C@H](C)NC(=O)[C@@H]1CCCN1C(=O)[C@H](CC(N)=O)NC(=O)[C@H](CCCNC(=N)N)NC(=O)[C@@H]1CCCN1C(=O)[C@H](Cc1c[nH]cn1)NC(=O)[C@H](C)NC(=O)[C@H](CCCNC(=N)N)NC(=O)[C@H](C)NC(=O)[C@H](CCC(N)=O)NC(=O)[C@H](CCCNC(=N)N)NC(=O)[C@H](C)NC(=O)[C@H](C)NC(=O)[C@H](C)NC(=O)[C@H](CCCNC(=N)N)NC(=O)[C@H](C)NC(=O)[C@@H](N)Cc1ccc(O)cc1)[C@@H](C)O)[C@@H](C)O)C(N)=O [MK2-activating peptide] (H-YARAAARQARAHPRNPARRTPGTRRGAPAA-NH2)
Treatment time by which significant MK2 activation was observed (50 μM): ≤ 15 min | MK2 activation (phosphorylated HSP27 immunoblot) (50 and 100 μM, 30 minutes): significant MK2 activation
